Experimental data reported in publication doi:10.1101/2022.03.31.486616.
Results are given in words; binding and its absence hold for the method and conditions named. In cells and extracts the contact can be indirect. Some results given as binding are weak or reduced against the parent protein; the word gives no strength. Where a sequence is shown, tags or fusion partners need not be part of it.

Chains of the proteins cited; added tags and fusions are not shown.
UniProt Q9KVG7: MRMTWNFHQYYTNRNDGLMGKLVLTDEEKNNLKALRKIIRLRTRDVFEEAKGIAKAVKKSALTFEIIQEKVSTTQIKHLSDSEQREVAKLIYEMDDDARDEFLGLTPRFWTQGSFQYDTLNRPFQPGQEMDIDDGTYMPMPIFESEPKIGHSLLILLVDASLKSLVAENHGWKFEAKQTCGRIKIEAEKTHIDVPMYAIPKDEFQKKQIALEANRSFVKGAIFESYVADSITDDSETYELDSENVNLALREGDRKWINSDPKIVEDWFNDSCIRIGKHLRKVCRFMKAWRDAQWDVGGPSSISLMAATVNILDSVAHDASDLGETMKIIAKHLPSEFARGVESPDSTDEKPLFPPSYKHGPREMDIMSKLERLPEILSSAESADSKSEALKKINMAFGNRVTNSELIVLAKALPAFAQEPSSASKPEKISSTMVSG

T1: V. cholerae Cap2-3×FLAG (V. cholerae) (UniProt Q9KVG6)
T1 sequence: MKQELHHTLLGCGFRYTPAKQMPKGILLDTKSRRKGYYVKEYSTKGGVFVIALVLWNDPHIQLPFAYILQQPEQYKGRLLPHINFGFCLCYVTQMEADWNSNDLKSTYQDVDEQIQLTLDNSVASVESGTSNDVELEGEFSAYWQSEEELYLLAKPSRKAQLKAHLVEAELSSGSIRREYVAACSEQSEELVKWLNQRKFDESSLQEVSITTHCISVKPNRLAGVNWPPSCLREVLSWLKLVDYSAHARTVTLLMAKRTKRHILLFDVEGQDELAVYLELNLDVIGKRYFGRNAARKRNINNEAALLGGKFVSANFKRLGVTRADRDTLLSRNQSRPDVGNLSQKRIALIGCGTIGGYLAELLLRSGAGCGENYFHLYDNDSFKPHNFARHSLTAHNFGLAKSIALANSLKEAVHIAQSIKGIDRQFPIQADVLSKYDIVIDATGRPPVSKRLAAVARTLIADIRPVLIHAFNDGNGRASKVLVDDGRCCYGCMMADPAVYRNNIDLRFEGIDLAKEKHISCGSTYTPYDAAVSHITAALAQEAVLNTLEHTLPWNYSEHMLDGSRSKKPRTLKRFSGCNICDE


What was measured:
[1] = molecular target: T1, V. cholerae Cap2-3×FLAG (V. cholerae); experiment: co-IP
[2] = molecular target: V. cholerae cGAS (DncV) (V. cholerae) (UniProt Q9KVG7); experiment: co-IP

| Molecule | binding [1] | binding [2] |
| --- | --- | --- |
| V. cholerae cGAS (DncV) (from UniProt Q9KVG7 1-436) (enzyme) | binds | – |
| V. cholerae Cap2-3×FLAG (enzyme, UniProt Q9KVG6 1-584) MKQELHHTLLGCGFRYTPAKQMPKGILLDTKSRRKGYYVKEYSTKGGVFVIALVLWNDPHIQLPFAYILQQPEQYKGRLLPHINFGFCLCYVTQMEADWNSNDLKSTYQDVDEQIQLTLDNSVASVESGTSNDVELEGEFSAYWQSEEELYLLAKPSRKAQLKAHLVEAELSSGSIRREYVAACSEQSEELVKWLNQRKFDESSLQEVSITTHCISVKPNRLAGVNWPPSCLREVLSWLKLVDYSAHARTVTLLMAKRTKRHILLFDVEGQDELAVYLELNLDVIGKRYFGRNAARKRNINNEAALLGGKFVSANFKRLGVTRADRDTLLSRNQSRPDVGNLSQKRIALIGCGTIGGYLAELLLRSGAGCGENYFHLYDNDSFKPHNFARHSLTAHNFGLAKSIALANSLKEAVHIAQSIKGIDRQFPIQADVLSKYDIVIDATGRPPVSKRLAAVARTLIADIRPVLIHAFNDGNGRASKVLVDDGRCCYGCMMADPAVYRNNIDLRFEGIDLAKEKHISCGSTYTPYDAAVSHITAALAQEAVLNTLEHTLPWNYSEHMLDGSRSKKPRTLKRFSGCNICDE | – | binds |
